Hit rate of the full screen: of about 52,000 sequences, about 210 (0.4%) were called active.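 How the source made its calls: active means gene whose silencing raises cell survival under the drug, median off-target-corrected z-score across its silencing RNAs 2 or more; inactive means the rest.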 The list shows a part of the results.

Here are results for 104 sequences from PubChem BioAssay AID1347423 (Functional Genomics Laboratory (NCATS/FGL), 2020).

This test can be described thus: Resistance to Poly (ADP-Ribose) Polymerase inhibitor: Gene Identification via Genome-wide siRNA Screen. The settings on record: mouse BRCA2 R2336H ES cells, olaparib, CellTiter-Glo viability; hits give high values. The gist of the method: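 Genome-wide siRNA screen (3 siRNAs/gene, 20 nM) in mouse ES cells carrying hypomorphic BRCA2 R2336H; olaparib 500 nM added 48 h post-transfection, CellTiter-Glo viability 72 h later. Normalized to plate-median negative control; MAD z-scores, gene median, seed-adjusted.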
As for GCUGGCUGUUGGAUAAGUGTT against Olfr1112, the z-score is inactive: -1.92.
The result for GGCGAGACCAUCCAUAUGUTT against Dusp19 reads inactive: 0.168; that for GGGUCAGAAUUUUUGCUUCTT against Olfr328, inactive: -0.415.
The value for GCAUAGCUAACUCAGCAUATT against Map2k2 was inactive: -0.155.
As for GGCCUUUAGUUUAAUCCUATT against Ubxd4, the z-score is inactive: 0.533.
As to GCUCAAUUUACAAAAGCCCTT against Pik3c2a, the z-score is inactive: 0.824.
Take GGAAACUGUUUAGGAAUUGTT against Adpn: the z-score is inactive: 0.91.
GGACAAACACUGUUUAUUCTT against Phf8: the z-score is inactive: 0.923.
In the case of GCAAGGUCAAUCAAUCGUATT against Trar1, the z-score is inactive: 0.721.
Regarding GUGACCACUUUGCCACUUGTT against Olfr1259, the z-score is inactive: -0.701.
The result for GGCCAAAUUUUCCUUCCAATT against Cast1 reads inactive: 0.727; that for GGUAGAGUCUAACACGUGGTT against Ctsw, inactive: 0.0282.
On to “GGGAAAAUCCAGCCAUAGUTT against 4922504M18Rik”, for which the z-score was inactive: -1.24.
For GGAUACCUUGCCUUUCUUATT against Bmpr1a, the z-score is inactive: 0.0591.
As to GGAAAGCGGUAUGGCAUGGTT against Oraov1, the z-score is inactive: 0.603.
On to GGUAAAACAGGUUUAGAGATT against Slc1a4, for which the z-score is inactive: 2.03.
Regarding GCUUAAUGAGGAAAUACCATT against Ptpn12, the z-score was inactive: 0.654.
Consider GGUGCUCUGAGGAACUCCATT against Olfr1491, for which the z-score is inactive: -0.0168.
For GCCAAAUGAGUCAGAUACUTT against Ak3l, the z-score was inactive: 1.46.
With CGCAAAACCGGGUCAAAUCTT against F9, the z-score is inactive: 1.7.
GGAGGAGAAGAAGAAGGCCTT against AA407659: the z-score is inactive: 0.37.
As to GCCCAAGAGUUGAGAUUCUTT against Kcnj14, the z-score was inactive: 0.00246.
GGUUUUUCAAUUAAACGGATT against Cd63: the z-score is inactive: -0.563.
On to GCUCCAGAUGUUCAGAGCUTT against Fbxo9, for which the z-score is inactive: -0.242.
Regarding GGUGUUCGACUUUGAGCGCTT against Smad6, the z-score is inactive: 1.04.
In the case of GGGACUUGUCAGGUUUCUATT against BC002216, the z-score is inactive: 0.488.
GGUCCCUUUUGCUAAAACATT against Gm347: the z-score was inactive: 0.529.
On to CAGCUCUCUUGCUCAAACATT against Olfr815, for which the z-score was inactive: 0.811.
With “GGACUCAAGGACAAACAGUTT against 4632417D23”, the z-score is inactive: 0.575.
In the case of GGUGGUUUGUGUUACAUUUTT against Ifnar2, the z-score is inactive: 0.826.
The value for “GGCCAGGACCUAAAUACAATT against 4932417I16Rik” was inactive: -1.47.
Turning to GGUUAAAAGCAUCUCUAAGTT against Cd8b, the z-score was inactive: 0.305.
Turning to GCAUUUAGAAGAAUCCGCCTT against Hao3, the z-score is inactive: -0.285.
With GCUGUCGUCUCGUAAUAGUTT against BC063749, the z-score is inactive: 1.33.
Regarding CCAGUGUGAUCAAAAACACTT against BC016188, the z-score is inactive: -0.257.
On to “GGGCUUAAUCCAGGCCUUATT against C030004A17Rik”, for which the z-score is inactive: 0.0481.
As for “GGAGUGUAAGGAAUUUAGCTT against 1700027M21Rik”, the z-score was inactive: 0.484.
As for GGUGAUCCUUAUGCUGUUATT against Bat8, the z-score was inactive: 0.653.
In the case of GCCAGCUACGUUUACGACUTT against Brms1, the z-score is inactive: -0.385.
As for GGAUUGAAACAGAUGAGAGTT against Gtf2e1, the z-score was inactive: 0.305.
The value for GGUGGUUUCAACAAGUUCCTT against Dusp7 was inactive: -0.392; that for CGAGUGCCAACUUUAGUUUTT against Hrh4 was inactive: -0.455.
For the sequence CCGACCAAGCUCUAUGUGATT against Mrgprh, the z-score was inactive: -0.668.
The result for “GGAGUUCCUGGAGAAGAAATT against 2010012F05Rik” reads inactive: -3.55; that for GCAAAUACUCAAGUUCAGATT against Cpt1b, inactive: 0.514; that for GGCCAUUGUUCAGGUGUUUTT against Atp6v1b1, inactive: 0.215.
Consider CGGUUCUAGUUGAAAUUGUTT against Pcdha3, for which the z-score is inactive: -0.125.
The result for GGCUUUAUGUAAGCAGAAGTT against Olfr948 reads inactive: -1.05; that for GCCAAUCACAUUCCCAUGCTT against Umps, inactive: 0.677.
GCCCAUAACAAAACAUCUATT against Mcpt5: the z-score is inactive: 1.1.
GGGCAUGUGAAGAUGUGCGTT against Map2k3: the z-score is inactive: -0.347.
With GCUUACAUGACUGCCUUAUTT against Raf1, the z-score was inactive: -1.34.
Consider GGAAGAUGAUUCAGAUUUGTT against BC054059, for which the z-score is inactive: 1.27.
For the sequence GCCACCCUAACAUUGUUUCTT against 4.93E+23, the z-score was inactive: 1.51.
“CGGUCUUCCCGUGGUUCAATT against 4921507A12”: the z-score was inactive: -0.479.
For the sequence GAUAAUGACCAGGCUACCATT against Magea7, the z-score is inactive: 1.19.
For GGUAGACACCUUGUUCUUATT against Nap1l3, the z-score was inactive: 0.898.
In the case of ACAAGGGAGGUAAAAAGAGTT against Olfr92, the z-score is inactive: -0.0397.
The result for GGAAAGUAUCCUGACAUUATT against Lig1 reads inactive: -0.902.
In the case of CCCUUUAUAAGGAAAUGUGTT against BC015286, the z-score is inactive: -1.63.
On to GCUGUUUUUACCUAGUUAGTT against Cpsf6, for which the z-score was inactive: -0.0768.
As for GCAGGAGAGUUUUGUUUUUTT against Mterf, the z-score is inactive: 1.37.
“GCGCACACCAUGGAUAGAATT against 2810007J24Rik”: the z-score is inactive: 1.95.
CCCAGUAUCUCAUGUGCCATT against Aqp5: the z-score is inactive: 0.905.
For the sequence GCUUGUGAAAAAUUAUGAGTT against Ipo7, the z-score is inactive: -1.
As for GGAAUAUGGAGCCUGAAAATT against Nudt15, the z-score is inactive: -0.0588.
Take GGAGGAUUUAAACCGGGAGTT against Ugt1a10: the z-score is inactive: -1.12.
On to “GCCAUAGGACCUAAAAGACTT against D230016N13Rik”, for which the z-score was inactive: -0.0507.
With GCCGAGUGAAAGCAAUUAUTT against Scg3, the z-score is inactive: 0.882.
Turning to CCUCCACUCACUUGUGACUTT against Slc35a4, the z-score was inactive: -1.48.
The result for GCUCAAAUUGCACUAUCUATT against Gpt2 reads inactive: -0.142; that for “GCGAACAUCCAGAGAAUGUTT against 1110012J17Rik”, inactive: 1.63; that for CCUGAAUUACCUCAUAUAUTT against Stat5b, inactive: 0.922.
Turning to GGUUGACCCACUGAAAAUUTT against Marveld1, the z-score was inactive: -1.55.
With GGAAUUGGUAGACCACACCTT against Smr1, the z-score is inactive: -1.08.
Consider GGAUUUCUGGAACCUUCAUTT against Caskin2, for which the z-score is inactive: -0.941.
For “GGAAGUGUUUGUUCUAAUCTT against 9630019K15Rik”, the z-score was inactive: -0.161.
With “GGCUGGUGCUGAAUAUCUUTT against 4930539E08Rik”, the z-score was inactive: 1.9.
For the sequence GGCAAAGAUCUUAUGGAGATT against Csf3r, the z-score is inactive: 2.11.
The value for “GCUAACGGUGUAACCAAGATT against A930010I20Rik” was inactive: -0.545.
Regarding GCCUGAUCCCAAUCGUGUATT against Smr2, the z-score is inactive: -1.58.
As for GGGACUUUAUAAAGAACUGTT against Ranbp1, the z-score is inactive: -0.398.
With CCUACAGUCAAGCAGAGCCTT against Klri1, the z-score was inactive: 0.167.
The value for GGAAGUGGUAACUGUGACATT against Cklfsf2a was inactive: -1.42; that for GGAGAAAAUUCAAGUCACCTT against Olfr663 was inactive: 0.0855; that for GGACAAGAUGAUCUGCCUATT against Lrrc8 was inactive: -3.26.
For CGUUCUAGUGACAUGUACATT against Sh2d3c, the z-score was inactive: 1.08.
Consider GCGAUAUGAAUAUCAUCUUTT against Fbxo22, for which the z-score was inactive: 0.441.
For the sequence GGCCGAGGAGAAAUUCAUCTT against Mapk8ip3, the z-score was inactive: -0.379.
On to GGUCACCUUAACCGAGAAGTT against Phkg1, for which the z-score was inactive: 1.23.
The result for GGUUCCUAGAAAGAAAGUGTT against Lypla3 reads inactive: 1.36.
Regarding CGAGAGGUGAUCUUAGAUUTT against Qscn6l1, the z-score was inactive: 1.77.
In the case of GGCAAAAAUUUUUUCAUGCTT against Abcb4, the z-score was inactive: -0.414.
Consider GUCUGAGCGACUGUCUCCATT against Mef2b, for which the z-score was inactive: 1.11.
GGCUGAGGUUCGAGUGUAUTT against Rps6ka4: the z-score is inactive: -0.728.
As for CCAUCAAUGGGAUAACUAATT against Rnaseh1, the z-score is inactive: -0.619.
In the case of “GGAAAGAAAAACGUAGGCGTT against 4933402J07”, the z-score is inactive: -1.41.
As to GGGUUUCUUGAUUCUGACCTT against Ccl5, the z-score was inactive: 0.356.
As for GGUACUGGAAAUCUGUAUGTT against Nlgn1, the z-score is inactive: -0.0487.
In the case of CGAAAGAUGUCUACGUGCCTT against Mrpl27, the z-score was inactive: 0.508.
As to GGAGGAGCUCCAUUUAUGCTT against Zfp71-rs1, the z-score is inactive: 0.14.
As to “GGUAGGAGCUCUGAACACUTT against 1300006C06Rik”, the z-score was inactive: 0.648.
As for GGACGAUUUUCCUCAAUAUTT against Pcdhgc4, the z-score is inactive: -1.97.
The result for “CGUUUCUGCAGCAAAAUUUTT against 4921511D23Rik” reads inactive: 0.274.
